Where a name gives a salt, the structure may show the parent alone. The list shows a part of the results. Baselines shift from plate to plate; read single values as rough.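 HCT116-GFP is a human colorectal cancer cell line that carries a KRAS mutation, is microsatellite-unstable and always makes green fluorescent protein; the immune cells came from healthy donors. Live-cell imaging of the green signal stood in for cancer cell survival, and activated immune cells alone cut survival to about half.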
These compounds were tested on HCT116-GFP (assay: HCT116-GFP viability (GFP intensity) relative to untreated HCT116-GFP monoculture control, co-culture with activated PBMCs; higher = less cancer cell killing). Conditions: culture: co-culture with anti-CD3/IL2 activated PBMCs 1:1; 10 µM; 72 h.
Work on CC(C)OC(=O)CCC/C=C\C[C@@H]1[C@@H](CC[C@@H](O)CCc2ccccc2)[C@H](O)C[C@@H]1O [Latanoprost] yielded an HCT116-GFP viability of 49.2%.
CC(=O)Oc1cc(C(C)C)c(OCCN(C)C)cc1C [Moxisylyte hydrochoride] was tested, and the HCT116-GFP viability was 55.7%.
For CC(c1cc2ccccc2s1)N(O)C(N)=O (stereo not given) [Zileuton], the HCT116-GFP viability was 74.2%.
C#C[C@]1(O)CC[C@H]2[C@@H]3[C@H](C)CC4=C(CCC(=O)C4)[C@H]3CC[C@@]21C [Tibolone] showed an HCT116-GFP viability of 47.4%.
CC(=O)OCC(=O)[C@@]1(O)CC[C@H]2[C@@H]3CCC4=CC(=O)C=C[C@]4(C)[C@@]3(F)[C@@H](O)C[C@@]21C [Isoflupredone acetate] showed an HCT116-GFP viability of 67.4%.
For COc1cc(C(=O)N2CCOCC2)cc(OC)c1OC [Trimetozine], the HCT116-GFP viability was 67.1%.
Work on CN(C)CCCOc1nn(Cc2ccccc2)c2ccccc12 [Benzydamine hydrochloride] yielded an HCT116-GFP viability of 65.4%.
Nc1ccc(S(=O)(=O)Nc2ccc(Cl)nn2)cc1 [Sulfachloropyridazine] gave an HCT116-GFP viability of 76.6%.
In the case of COc1cc2nc(N3CCN(C(=O)C4CCCO4)CC3)nc(N)c2cc1OC (stereo not given) [Terazosin hydrochloride], the HCT116-GFP viability is reported as 63.5%.
C[C@H]1[C@H](NC(=O)/C(=N\OC(C)(C)C(=O)O)c2csc(N)n2)C(=O)N1S(=O)(=O)O [Aztreonam] gave an HCT116-GFP viability of 26.5%.
Compound CNCCC=C1c2ccccc2CCc2ccccc21 [Nortriptyline hydrochloride] has an HCT116-GFP viability of 49.8%.
For CCc1c2c(nc3ccc(OC(=O)N4CCC(N5CCCCC5)CC4)cc13)-c1cc3c(c(=O)n1C2)COC(=O)[C@]3(O)CC [Irinotecan hydrochloride trihydrate], the HCT116-GFP viability was 12.3%.
CC(C)(O/N=C(\C(=O)N[C@@H]1C(=O)N2C(C(=O)[O-])=C(C[n+]3ccccc3)CS[C@H]12)c1csc(N)n1)C(=O)O [Ceftazidime pentahydrate] showed an HCT116-GFP viability of 35.1%.
Compound Cc1ccc(/C(=C\CN2CCCC2)c2ccccn2)cc1 [Triprolidine hydrochloride] has an HCT116-GFP viability of 48.3%.
In the case of Cc1c(Cl)cccc1Nc1ncccc1C(=O)O [Clonixin Lysinate], the HCT116-GFP viability is reported as 23.4%.
O=C(N/N=C/c1ccc([N+](=O)[O-])o1)c1ccc(O)cc1 [Nifuroxazide] gave an HCT116-GFP viability of 16.7%.
For CN1CCN(C(c2ccccc2)c2ccc(Cl)cc2)CC1 (stereo not given) [Chlorcyclizine hydrochloride], the HCT116-GFP viability was 69.5%.
For CC(=O)Nc1c(I)c(NC(C)=O)c(I)c(C(=O)O)c1I [Diatrizoic acid dihydrate], the HCT116-GFP viability was 33.4%.
With CCc1cc(C(N)=S)ccn1 [Ethionamide] the HCT116-GFP viability was 53.1%.
CCC(=O)[C@@]1(C)[C@H](C)C[C@H]2[C@@H]3CCC4=CC(=O)C=C[C@]4(C)[C@H]3[C@@H](O)C[C@@]21C [Rimexolone] showed an HCT116-GFP viability of 11.6%.
Compound CN(N=O)C(=O)N[C@@H](C=O)[C@@H](O)[C@H](O)[C@H](O)CO [Streptozotocin] has an HCT116-GFP viability of 80.7%.
In the case of CC[C@]12CCCN3CCc4c(n(c5ccccc45)C(=O)C1)[C@@H]32 [Eburnamonine (-)], the HCT116-GFP viability is reported as 4.56%.
For CCn1cc(C(=O)O)c(=O)c2cc(F)c(N3CCN(C)CC3)cc21 [Pefloxacine], the HCT116-GFP viability was 32%.
With C[C@@H]1CN(c2c(F)c(N)c3c(=O)c(C(=O)O)cn(C4CC4)c3c2F)C[C@H](C)N1 [Sparfloxacin] the HCT116-GFP viability was 38.5%.
C[C@]12C=CC(=O)C=C1CC[C@@H]1[C@@H]2C(=O)C[C@@]2(C)[C@H]1CC[C@]2(O)C(=O)CO [Prednisone] was tested, and the HCT116-GFP viability was 57.7%.
In the case of CCn1cc(C(=O)O)c(=O)c2cc(F)c(N3CCNC(C)C3)c(F)c21 (stereo not given) [Lomefloxacin hydrochloride], the HCT116-GFP viability is reported as 62.7%.
CS(=O)(=O)Nc1ccc([N+](=O)[O-])cc1Oc1ccccc1 [Nimesulide] showed an HCT116-GFP viability of 32.6%.
COc1cc(C)nc(-n2nc(C)cc2OC)n1 [Epirizole] gave an HCT116-GFP viability of 39.3%.
CNC(=C[N+](=O)[O-])NCCSCc1csc(CN(C)C)n1 [Nizatidine] was tested, and the HCT116-GFP viability was 65.2%.
For CCN(CC)CCCC(C)Nc1c2ccc(Cl)cc2nc2ccc(OC)cc12 (stereo not given) [Quinacrine dihydrochloride hydrate], the HCT116-GFP viability was 72.7%.
In the case of CCCCCCCCCCCCCCCC[N+](C)(C)CCN(Cc1ccc(OC)cc1)c1ncccn1 [Thonzonium bromide], the HCT116-GFP viability is reported as 0.192%.
C#C[C@]1(O)CC[C@H]2[C@@H]3CCc4cc(OC)ccc4[C@H]3CC[C@@]21C [Ethynylestradiol 3-methyl ether] was tested, and the HCT116-GFP viability was 69.2%.
CC(C)NCC(O)c1ccc(NS(C)(=O)=O)cc1 (stereo not given) [Sotalol hydrochloride] showed an HCT116-GFP viability of 54.8%.
With CC(=O)N1CCN(c2ccc(OCC3COC(Cn4ccnc4)(c4ccc(Cl)cc4Cl)O3)cc2)CC1 (stereo not given) [Ketoconazole] the HCT116-GFP viability was 48.3%.
Work on CN(CCOc1ccc(NS(C)(=O)=O)cc1)CCc1ccc(NS(C)(=O)=O)cc1 [Dofetilide] yielded an HCT116-GFP viability of 48.7%.
In the case of CCOC(=O)Nc1ccc2c(c1)N(C(=O)CCN1CCOCC1)c1ccccc1S2 [Moricizine hydrochloride], the HCT116-GFP viability is reported as 34.8%.
With CNC(=C[N+](=O)[O-])NCCSCc1ccc(CN(C)C)o1 [Ranitidine hydrochloride] the HCT116-GFP viability was 46.7%.
With CC(C)C[C@H](NC(=O)[C@@H](O)[C@H](N)Cc1ccccc1)C(=O)O [Ubenimex] the HCT116-GFP viability was 46.1%.
COC(=O)[C@H]1[C@H]2C[C@@H]3c4[nH]c5cc(OC)ccc5c4CCN3C[C@H]2C[C@@H](OC(=O)c2cc(OC)c(OC)c(OC)c2)[C@@H]1OC [Reserpine] showed an HCT116-GFP viability of 59.6%.
CC(=O)O[C@]1(C(C)=O)CC[C@H]2[C@@H]3C=C(C)C4=CC(=O)CC[C@@H]4[C@H]3CC[C@@]21C [Nomegestrol acetate] was tested, and the HCT116-GFP viability was 43.9%.
With O=C1C(CC[S+]([O-])c2ccccc2)C(=O)N(c2ccccc2)N1c1ccccc1 (stereo not given) [Sulfinpyrazone] the HCT116-GFP viability was 48.4%.
In the case of NS(=O)(=O)c1cc2c(cc1Cl)N=C(CSCc1ccccc1)NS2(=O)=O [Benzthiazide], the HCT116-GFP viability is reported as 80.8%.
CC(=O)Oc1cc(C(F)(F)F)ccc1C(=O)O [Triflusal] gave an HCT116-GFP viability of 42.9%.
CS(=O)(=O)c1ccc([C@@H](O)[C@@H](CO)NC(=O)C(Cl)Cl)cc1 [Thiamphenicol] was tested, and the HCT116-GFP viability was 37.3%.
CC(C)Cc1ccc([C@H](C)C(=O)O)cc1 [S-(+)-ibuprofen] showed an HCT116-GFP viability of 62.8%.
Compound C[C@]12C=CC(=O)C=C1CC[C@@H]1[C@@H]2[C@@H](O)C[C@@]2(C)[C@H]1CC[C@]2(O)C(=O)CO [Prednisolone] has an HCT116-GFP viability of 68.1%.
Compound O=c1[nH]cc(F)c(=O)[nH]1 [5-fluorouracil] has an HCT116-GFP viability of 2.76%.
CN1CCN(CCCN2c3ccccc3Sc3ccc(S(=O)(=O)N(C)C)cc32)CC1 [Thioproperazine dimesylate] was tested, and the HCT116-GFP viability was 64%.
C[C@@H](c1ncncc1F)[C@](O)(Cn1cncn1)c1ccc(F)cc1F [Voriconazole] showed an HCT116-GFP viability of 38.9%.
O=C(O)Cc1ccccc1Nc1c(Cl)cccc1Cl [Diclofenac sodium] was tested, and the HCT116-GFP viability was 38.5%.
COC(=O)C1=C(C)NC(C)=C(C(=O)OC)C1c1ccccc1[N+](=O)[O-] [Nifedipine] was tested, and the HCT116-GFP viability was 24.7%.
Work on Nc1ccc(O)c(C(=O)O)c1 [Mesalamine] yielded an HCT116-GFP viability of 44.3%.
With CCN(CC)CCOC(=O)C1(c2ccc([N+](=O)[O-])cc2)CCCC1 [Nitrocaramiphen hydrochloride] the HCT116-GFP viability was 45.6%.
For Clc1ccccc1CN1CCc2sccc2C1 [Ticlopidine hydrochloride], the HCT116-GFP viability was 28.4%.
CO[C@@]1(NC(=O)C2SC(=C(C(N)=O)C(=O)O)S2)C(=O)N2C(C(=O)O)=C(CSc3nnnn3C)CS[C@@H]21 (stereo not given in full) [Cefotetan] was tested, and the HCT116-GFP viability was 45.4%.
For CN(C)CCCN1c2ccccc2CCc2ccc(Cl)cc21 [Clomipramine hydrochloride], the HCT116-GFP viability was 55.6%.
Work on Cc1cc(NC(=O)C2=C(O)c3ccccc3S(=O)(=O)N2C)no1 [Isoxicam] yielded an HCT116-GFP viability of 37.2%.
In the case of Cc1cc(C(C)(C)CC(C)(C)C)ccc1OCCOCC[N+](C)(C)Cc1ccccc1 [Methyl benzethonium chloride], the HCT116-GFP viability is reported as 1.72%.
For C#C[C@]1(OC(C)=O)CC[C@H]2[C@@H]3CCC4=C[C@@H](OC(C)=O)CC[C@@H]4[C@H]3CC[C@@]21C [Ethynodiol diacetate], the HCT116-GFP viability was 52.7%.
In the case of Nc1ccc(S(=O)(=O)Nc2ncccn2)cc1 [Sulfadiazine], the HCT116-GFP viability is reported as 42.1%.
With CO[C@@]1(NC(=O)C(C(=O)O)c2ccc(O)cc2)C(=O)N2C(C(=O)O)=C(CSc3nnnn3C)CO[C@@H]21 (stereo not given in full) [Moxalactam disodium salt] the HCT116-GFP viability was 81.1%.
Compound C#C[C@]1(O)CC[C@H]2[C@@H]3CCC4=CC(=O)CC[C@@H]4[C@H]3CC[C@@]21C [Norethindrone] has an HCT116-GFP viability of 34.7%.
Cc1ccc(N(CC2=NCCN2)c2cccc(O)c2)cc1 [Phentolamine hydrochloride] gave an HCT116-GFP viability of 38.9%.
CCc1ccc(CCOc2ccc(CC3SC(=O)NC3=O)cc2)nc1 (stereo not given) [Pioglitazone] was tested, and the HCT116-GFP viability was 54.4%.
CO[C@H]1/C=C/O[C@@]2(C)Oc3c(C)c(O)c4c(O)c(c(/C=N/N5CCN(C)CC5)c(O)c4c3C2=O)NC(=O)/C(C)=C\C=C\[C@H](C)[C@H](O)[C@@H](C)[C@@H](O)[C@@H](C)[C@H](OC(C)=O)[C@@H]1C [Rifampicin] showed an HCT116-GFP viability of 42.8%.
Cc1c(Cl)cccc1Nc1ccccc1C(=O)O [Tolfenamic acid] was tested, and the HCT116-GFP viability was 38.4%.
For CCCSc1ccc2[nH]c(NC(=O)OC)nc2c1 [Albendazole], the HCT116-GFP viability was 2.01%.
CC[C@H]1OC(=O)[C@H](C)[C@@H](O[C@H]2C[C@@](C)(OC)[C@@H](O)[C@H](C)O2)[C@H](C)[C@@H](O[C@@H]2O[C@H](C)C[C@H](N(C)C)[C@H]2O)[C@](C)(O)C[C@@H](C)C(=O)[C@H](C)[C@@H](O)[C@]1(C)O [Erythromycin] showed an HCT116-GFP viability of 39.7%.
With c1ccc(CC2=NCCN2)cc1 [Tolazoline hydrochloride] the HCT116-GFP viability was 57.4%.
OCCN1CCN(CCCN2c3ccccc3Sc3ccc(C(F)(F)F)cc32)CC1 [Fluphenazine dihydrochloride] gave an HCT116-GFP viability of 13.3%.

Reference: the supplement of paper PMC9938546
